Test results reported in PubChem BioAssay AID1439 (NMMLSC, 2008).
About 770 (0.35%) of roughly 220,000 compounds were called active. Inconclusive means that the source gave no clear call. Such entries were picked first, then a sample of the others. Cut-off read from the data, not from the text of the source: active = binding response below about 49% or above about 150%; inconclusive = no clear call, values can overlap the other calls; inactive = in between.

Amino acid sequences for entries named in this document (tags omitted).
UniProt P09471, whole entry, looked up: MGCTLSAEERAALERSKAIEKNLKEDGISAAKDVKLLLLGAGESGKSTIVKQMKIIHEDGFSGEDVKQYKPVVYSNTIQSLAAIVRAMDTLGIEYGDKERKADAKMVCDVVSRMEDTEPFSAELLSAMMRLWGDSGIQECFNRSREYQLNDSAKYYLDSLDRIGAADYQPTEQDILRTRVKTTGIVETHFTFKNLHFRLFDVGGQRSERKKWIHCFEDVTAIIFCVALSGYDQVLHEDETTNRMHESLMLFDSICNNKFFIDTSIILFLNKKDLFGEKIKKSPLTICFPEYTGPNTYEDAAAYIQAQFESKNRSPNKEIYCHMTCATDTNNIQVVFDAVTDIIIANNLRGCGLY

Molecular target: Guanine nucleotide-binding protein G(o) subunit alpha (Homo sapiens) (UniProt P09471)
Experiment: RGS7-Galphao binding modulators, primary screen, biochemical, multiplexed bead flow cytometry (AID 1439);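 note: fluorescent Galphao held in activated GDP-AlF4 state binding bead-coupled RGS7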
Conditions: at 10 µM, actives lie on both sides

Structure (SMILES)	binding response (% of control)
NC(=O)c1ccc(N2CCN(c3ncc(C(F)(F)F)cc3Cl)CC2)cc1	inconclusive: 98.8%
COc1ccc(OCC(=O)NNc2nc3ccccc3s2)cc1	inconclusive: 66.9%
COc1cc(/C=N/NC(=O)C2=NNC(=O)C2C)ccc1O (configuration not stated)	inconclusive: 104%
Cc1ccc(C2=NN=C(NC(=O)C(F)(F)F)SC2)cc1	inactive: 101%
COc1ccc(CCNC(=O)CSc2nn(-c3ccccc3)c(=S)s2)cc1	inconclusive: 125%
CCOC(=O)CN(C(=O)COc1nc(C)cc(C)c1C#N)c1cccc(Cl)c1	inconclusive: 98.3%
CCC1(CC)Nc2ccccc2C(=O)N1c1ccc(OC)cc1	inconclusive: 99.9%
NNC(=O)c1nnn(-c2nonc2N)c1CN1CCc2ccccc2C1	inconclusive: 123%
COc1ccc(C2CC(=O)Oc3c(C(CCN4CCCCC4)c4ccc(N(C)C)cc4)c(OC)cc(OC)c32)cc1 (configuration not stated)	inconclusive: 101%
CCOC(=O)N1CCN(C(=O)c2ccc(N3CCCC3=O)cc2)CC1	inactive: 99.6%
CCOC(=O)c1c[nH][nH]c1=O	inconclusive: 83.3%
O=C(CN1CCN(C(=O)c2ccco2)CC1)Nc1cccc([N+](=O)[O-])c1	inactive: 99.8%
CO/C(N)=C(\C#N)N=Cc1ccccc1Cl	inactive: 103%
Cc1n[nH]c(=S)n(/N=C/c2cccs2)c1=O	inconclusive: 31.3%
COC(=O)c1cc(C#N)c(OC(C)C)nc1C	inconclusive: 96%
O=C(c1cccs1)N1CCN=C1SCc1ccc(F)cc1	inconclusive: 92.3%
COc1cccc(CCc2nnc(CCC(=O)NC(C)c3c(C)nn(C)c3C)o2)c1 (configuration not stated)	inactive: 107%
CC(=O)NCCc1nc2ccccc2n1CCOc1ccccc1C	inconclusive: 116%
CC(C)C[C@H](NC(=O)c1nc[nH]c1C(=O)NCC(=O)OC(C)(C)C)C(=O)OCc1ccccc1	inconclusive: 118%
Cc1nccn1CC(=O)N/N=C/c1ccccc1O	inconclusive: -35.8%
CSc1cccc(NC(=S)Nc2ccc(F)cc2)c1	inconclusive: 75.7%
O=C1c2ccccc2-c2cccc(C(=O)N3CCCCC3)c21	inconclusive: 106%
C/C(=N/OC(=O)c1cccc(C(F)(F)F)c1)c1cnccn1	inconclusive: 81.9%
NC(=O)CC(NC(=O)Cc1ccc(Br)cc1)c1ccc(NC2CCC2)c([N+](=O)[O-])c1 (configuration not stated)	inconclusive: 78.5%

Entries above that contain two or more sulfur atoms, in the order listed:
Structure (SMILES)	binding response (% of control)
COc1ccc(CCNC(=O)CSc2nn(-c3ccccc3)c(=S)s2)cc1	inconclusive: 125%
Cc1n[nH]c(=S)n(/N=C/c2cccs2)c1=O	inconclusive: 31.3%
O=C(c1cccs1)N1CCN=C1SCc1ccc(F)cc1	inconclusive: 92.3%
CSc1cccc(NC(=S)Nc2ccc(F)cc2)c1	inconclusive: 75.7%

Additional structures.

Structure (SMILES)	binding response (% of control)
O=[N+]([O-])c1ccc(-c2c[nH]c(=S)[nH]2)cc1	inconclusive: 153%
CCC(C)c1ccccc1NC(=O)C(C)NCCN(C)C (configuration not stated)	inconclusive: 176%
COc1ccc(CNC(=O)CN2CCN(S(=O)(=O)c3cccs3)CC2)cc1OC	inactive: 100%
S=c1[nH]nc(-c2ccccn2)n1/N=C/c1ccc(Cl)cc1	inconclusive: 151%
CC(C)(C)NC(=O)C(c1ccncc1)N(C(=O)Cn1nnc(-c2ccc(F)cc2)n1)c1ccccc1 (configuration not stated)	inactive: 99.7%
CC(C(=O)O)N1CCCCC1 (configuration not stated)	inconclusive: 90.2%
COc1cc(NC(=O)c2cccnc2)ccc1-c1cc2ccccc2oc1=O	inconclusive: 108%
CS(=O)(=O)Nc1ccc(C(=O)N2CCCCC2)cc1	inactive: 91.7%
CC(C)Cc1nc2sc3c(c2c(=O)n1N)CC(C(C)C)OC3 (configuration not stated)	inconclusive: 95.3%
O=C(CCCc1nc(-c2ccccc2)no1)N1CCOCC1	inactive: 102%
O=C(NCCNC1CCC(c2ccccc2)CC1)c1cccs1 (configuration not stated)	inactive: 102%
COC(=O)C(NC(=O)c1ccccc1)=C(C)C	inactive: 110%
CCN(Cc1ccncc1)C(=O)c1ccccc1NS(=O)(=O)c1ccc(Br)cc1	inconclusive: 79.2%
CC1(C(=O)NCc2cc(F)cc(C(F)(F)F)c2)C=CC2(CCCCC2)N1C(=O)c1ccccc1 (configuration not stated)	inactive: 101%
O=C(c1ccccc1)c1c[nH]c(C(=O)NNc2ccccc2)c1	inactive: 93.5%
O=C(COC(=O)c1ccc(S(=O)(=O)NCc2ccco2)cc1)Nc1ccc(Cl)cn1	inconclusive: 97.6%
Cc1nc2ccccn2c1C(=O)/C=C/c1cccc([N+](=O)[O-])c1	inconclusive: 16.8%
Cc1c(N)cc(N)cc1C(=O)O	inconclusive: 90.4%
Cc1cc(C(=O)Nc2nc3ccc(Cl)cc3s2)nn1C	inconclusive: 104%
O=C(c1ccc(Cl)cc1)N1CCCC(c2ccccc2)=N1	inactive: 93.9%
CCCCOC(=O)Nc1ccc(S(=O)(=O)Nc2ncccn2)cc1	inconclusive: 85.6%
COc1cc(OC)cc(C(=O)N[C@@H](CCSC)c2nc3ccccc3[nH]2)c1	inactive: 85.6%
O=C(C[n+]1ccc2ccccc2c1)c1ccccc1	inconclusive: 124%

Retrieved by structure from the entries so far:
Structure (SMILES)	binding response (% of control)
O=[N+]([O-])c1ccc(-c2c[nH]c(=S)[nH]2)cc1	inconclusive: 153%
O=C(C[n+]1ccc2ccccc2c1)c1ccccc1	inconclusive: 124%
